The record followed here is paper PMC7083938.

Sequences of proteins named here, by UniProt entry; tags and fusion partners are left off. A change or cut given only in a name is not applied to a line headed by its entry. Residues count along the entry.
UniProt Q96MS0: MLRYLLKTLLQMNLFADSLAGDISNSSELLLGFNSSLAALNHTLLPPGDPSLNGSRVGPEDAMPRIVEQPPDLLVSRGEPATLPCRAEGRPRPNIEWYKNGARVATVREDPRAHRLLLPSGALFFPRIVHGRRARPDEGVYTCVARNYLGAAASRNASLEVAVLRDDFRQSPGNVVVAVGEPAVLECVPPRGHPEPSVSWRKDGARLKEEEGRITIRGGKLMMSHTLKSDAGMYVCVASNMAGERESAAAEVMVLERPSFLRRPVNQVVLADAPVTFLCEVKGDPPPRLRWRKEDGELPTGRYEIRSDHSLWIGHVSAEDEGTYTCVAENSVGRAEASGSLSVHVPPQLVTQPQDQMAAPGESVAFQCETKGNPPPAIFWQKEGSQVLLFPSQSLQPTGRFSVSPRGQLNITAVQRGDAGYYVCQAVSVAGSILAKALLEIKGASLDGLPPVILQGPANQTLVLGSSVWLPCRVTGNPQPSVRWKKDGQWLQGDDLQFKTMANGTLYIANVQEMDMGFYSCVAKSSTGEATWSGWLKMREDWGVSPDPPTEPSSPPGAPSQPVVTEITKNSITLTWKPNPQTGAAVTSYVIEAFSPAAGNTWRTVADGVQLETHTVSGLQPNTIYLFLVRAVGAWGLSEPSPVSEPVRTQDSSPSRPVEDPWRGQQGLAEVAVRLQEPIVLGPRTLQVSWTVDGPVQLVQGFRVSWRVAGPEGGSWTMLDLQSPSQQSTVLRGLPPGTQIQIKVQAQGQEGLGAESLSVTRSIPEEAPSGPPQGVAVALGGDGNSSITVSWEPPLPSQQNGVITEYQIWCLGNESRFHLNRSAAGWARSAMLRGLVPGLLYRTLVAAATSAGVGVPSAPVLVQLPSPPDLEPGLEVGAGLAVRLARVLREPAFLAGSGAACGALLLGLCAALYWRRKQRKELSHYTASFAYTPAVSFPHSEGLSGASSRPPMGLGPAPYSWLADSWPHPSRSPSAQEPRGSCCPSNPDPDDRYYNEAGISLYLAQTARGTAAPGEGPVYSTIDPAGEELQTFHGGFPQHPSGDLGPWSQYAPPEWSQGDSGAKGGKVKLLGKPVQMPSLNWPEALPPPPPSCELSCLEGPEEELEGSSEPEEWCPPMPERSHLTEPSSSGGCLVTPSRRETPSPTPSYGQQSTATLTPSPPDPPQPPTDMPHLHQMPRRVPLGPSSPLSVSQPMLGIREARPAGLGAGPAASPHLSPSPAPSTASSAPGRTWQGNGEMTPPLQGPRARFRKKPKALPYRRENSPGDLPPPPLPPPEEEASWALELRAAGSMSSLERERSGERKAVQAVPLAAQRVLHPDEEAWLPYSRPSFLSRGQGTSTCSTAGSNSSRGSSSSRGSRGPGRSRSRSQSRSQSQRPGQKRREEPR
UniProt Q99435, residues 397-638: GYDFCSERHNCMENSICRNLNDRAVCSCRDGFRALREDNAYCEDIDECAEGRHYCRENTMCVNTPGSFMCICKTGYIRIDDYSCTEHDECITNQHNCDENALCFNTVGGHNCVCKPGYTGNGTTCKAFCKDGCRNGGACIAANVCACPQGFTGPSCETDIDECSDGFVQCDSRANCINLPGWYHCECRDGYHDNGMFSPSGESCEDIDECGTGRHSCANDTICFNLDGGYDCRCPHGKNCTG
UniProt Q61220: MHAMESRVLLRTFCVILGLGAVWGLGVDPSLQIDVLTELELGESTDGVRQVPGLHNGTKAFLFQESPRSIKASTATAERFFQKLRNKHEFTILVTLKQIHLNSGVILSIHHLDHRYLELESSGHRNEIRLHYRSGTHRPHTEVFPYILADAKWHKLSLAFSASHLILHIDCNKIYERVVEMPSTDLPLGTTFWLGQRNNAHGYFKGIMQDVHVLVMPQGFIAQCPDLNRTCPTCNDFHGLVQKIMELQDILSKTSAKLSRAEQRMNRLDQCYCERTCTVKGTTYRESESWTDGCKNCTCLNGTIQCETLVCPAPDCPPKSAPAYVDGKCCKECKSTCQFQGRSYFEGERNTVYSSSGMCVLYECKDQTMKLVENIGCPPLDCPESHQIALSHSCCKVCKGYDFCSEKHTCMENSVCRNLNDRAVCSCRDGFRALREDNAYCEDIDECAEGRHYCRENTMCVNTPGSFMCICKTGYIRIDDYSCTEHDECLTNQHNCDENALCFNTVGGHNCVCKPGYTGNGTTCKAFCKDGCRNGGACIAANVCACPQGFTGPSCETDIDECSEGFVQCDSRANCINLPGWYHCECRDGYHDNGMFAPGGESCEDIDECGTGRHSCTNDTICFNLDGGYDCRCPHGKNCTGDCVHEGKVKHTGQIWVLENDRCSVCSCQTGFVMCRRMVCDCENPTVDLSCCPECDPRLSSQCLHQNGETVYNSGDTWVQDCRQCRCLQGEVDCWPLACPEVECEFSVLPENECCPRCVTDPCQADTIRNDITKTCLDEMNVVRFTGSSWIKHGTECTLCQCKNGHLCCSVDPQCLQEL

The target of assay [1] is human Robo3 FN domains 1-3 (human) (UniProt Q96MS0). Put plainly: SEC; purified proteins and mixed complex samples (1:1 molar for hNELL2 EGF1–6 + hRobo3 FN1–3 on Superdex 200 Increase 10/300), HBS (10 mM HEPES pH 7.2, 150 mM NaCl); both purified. Background: SEC sorts molecules by how far they enter the pores of the column.
Assay [2] addresses T1, mouse Robo3 ectodomain (mouse) (UniProt Q9Z2I4).
T1 sequence (chain, biotin (NHS-Biotin) where captured on the SA chip for SPR): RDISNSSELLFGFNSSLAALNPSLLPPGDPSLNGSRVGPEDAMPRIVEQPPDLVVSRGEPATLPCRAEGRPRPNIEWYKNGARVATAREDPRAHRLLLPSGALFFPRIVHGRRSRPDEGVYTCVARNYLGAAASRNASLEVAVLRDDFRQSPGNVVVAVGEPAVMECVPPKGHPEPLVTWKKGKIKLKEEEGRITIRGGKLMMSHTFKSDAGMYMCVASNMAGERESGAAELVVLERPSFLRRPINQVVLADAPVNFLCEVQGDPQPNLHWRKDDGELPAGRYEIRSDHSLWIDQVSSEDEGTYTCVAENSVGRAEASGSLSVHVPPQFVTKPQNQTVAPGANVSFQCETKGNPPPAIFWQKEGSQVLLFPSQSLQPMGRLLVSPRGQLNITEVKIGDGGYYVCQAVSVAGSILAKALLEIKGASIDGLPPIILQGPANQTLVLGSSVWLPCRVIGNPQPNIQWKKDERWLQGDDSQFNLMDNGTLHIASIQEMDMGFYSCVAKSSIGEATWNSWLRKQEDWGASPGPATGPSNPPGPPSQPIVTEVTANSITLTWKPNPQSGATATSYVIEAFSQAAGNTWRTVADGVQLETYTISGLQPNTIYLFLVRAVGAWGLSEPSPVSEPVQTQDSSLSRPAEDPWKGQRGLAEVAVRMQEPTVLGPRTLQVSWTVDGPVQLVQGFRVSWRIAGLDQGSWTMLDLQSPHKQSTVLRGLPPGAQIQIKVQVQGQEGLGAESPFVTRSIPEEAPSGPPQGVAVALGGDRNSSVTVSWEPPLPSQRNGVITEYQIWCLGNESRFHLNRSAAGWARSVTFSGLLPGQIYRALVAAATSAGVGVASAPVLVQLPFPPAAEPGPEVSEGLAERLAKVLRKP
Put plainly: SAXS; SEC-coupled SAXS, Superose 6 Increase 10/300 in HBS, APS beamline 18 (Bio-CAT); samples injected at 10–30 µM (hRobo3 ectodomain, hNELL2) or ~1 mg protein; molecular weight by the Vc method; both purified.

These are yes or no findings as the source states them, for the method shown. Binding calls can cover weak binding; strength is not graded here.

On to “human NELL2 EGF domains 1-6 (from UniProt Q99435 397-638) (domain or fragment)”, for which the binding result in assay [1] is “binds”.

Take “mouse NELL2 EGF1–6, wild type (from UniProt Q61220) (domain or fragment)”: the binding result in assay [2] was “binds”.
